PubChem BioAssay AID652272 | Drosophila RNAi Screening Center, 2013
Purpose: 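Genome-wide knock-down search for components of Hedgehog signalling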 (primary screen). System: Drosophila clone 8 (Cl8) cells. Reagents: long dsRNA against Drosophila genes. Detection: 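Firefly light from a Hedgehog-responsive ptc promoter reporter and Renilla reference light, both read on a plate reader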. Scale: firefly Hh reporter signal: higher = more ptc reporter light; Renilla reference signal: higher = more Renilla control light. Hit rule: 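Hit when the z-score averaged over two replicates is under -2 or over +3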. Meaning of the calls: active = hit: reporter lowered or raised; inactive = not a hit.
The screen tested about 21,000 reagents; this is a random part of those that have a named target and a result. Of all reagents, 503 (2.4%) got an active call. 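Raw plate light values, not normalised; calls rest on replicate z-scores that were not deposited; hits include reporter decreases as well as increases.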 The record does not give: the amount of reagent, the time to read-out.

Depletion of fmt (fiery mountain) resulted in: firefly Hh reporter signal, replicate 1 = 1.14e5; firefly Hh reporter signal, replicate 2 = 1.18e5; Renilla reference signal, replicate 1 = 4040; Renilla reference signal, replicate 2 = 3248; inactive.
Knock-down of Patsas gave: firefly Hh reporter signal, replicate 1 = 80080; firefly Hh reporter signal, replicate 2 = 59046; Renilla reference signal, replicate 1 = 3745; Renilla reference signal, replicate 2 = 2400; inactive.
After knock-down of CG15818, the screen gave firefly Hh reporter signal, replicate 1 = 1.28e5; firefly Hh reporter signal, replicate 2 = 1.20e5; Renilla reference signal, replicate 1 = 6512; Renilla reference signal, replicate 2 = 4954; inactive.
CG16957 scored firefly Hh reporter signal, replicate 1 = 79661; firefly Hh reporter signal, replicate 2 = 50088; Renilla reference signal, replicate 1 = 2163; Renilla reference signal, replicate 2 = 4712; inactive.
Knock-down of CG1806 came out at: firefly Hh reporter signal, replicate 1 = 86800; firefly Hh reporter signal, replicate 2 = 81110; Renilla reference signal, replicate 1 = 2213; Renilla reference signal, replicate 2 = 1989; inactive.
Knock-down of MED15 (Mediator complex subunit 15) gave: firefly Hh reporter signal, replicate 1 = 55216; firefly Hh reporter signal, replicate 2 = 1.02e5; Renilla reference signal, replicate 1 = 3108; Renilla reference signal, replicate 2 = 4171; inactive.
Depletion of CG4619 came out at: firefly Hh reporter signal, replicate 1 = 94371; firefly Hh reporter signal, replicate 2 = 61857; Renilla reference signal, replicate 1 = 4073; Renilla reference signal, replicate 2 = 2380; inactive.
Silencing of CG43136 came out at: firefly Hh reporter signal, replicate 1 = 4.29e5; firefly Hh reporter signal, replicate 2 = 1.75e5; Renilla reference signal, replicate 1 = 25973; Renilla reference signal, replicate 2 = 3976; inactive.
Depletion of Actn (alpha actinin) resulted in: firefly Hh reporter signal, replicate 1 = 75628; firefly Hh reporter signal, replicate 2 = 62888; Renilla reference signal, replicate 1 = 1751; Renilla reference signal, replicate 2 = 2056; inactive.
Knock-down of CG14421 came out at: firefly Hh reporter signal, replicate 1 = 1.21e5; firefly Hh reporter signal, replicate 2 = 3.75e5; Renilla reference signal, replicate 1 = 5488; Renilla reference signal, replicate 2 = 13347; inactive.
Against PolrMT (RNA polymerase mitochondrial), the entry reads firefly Hh reporter signal, replicate 1 = 78810; firefly Hh reporter signal, replicate 2 = 65568; Renilla reference signal, replicate 1 = 2851; Renilla reference signal, replicate 2 = 2773; inactive.
For CG34057, the entry reads firefly Hh reporter signal, replicate 1 = 50864; firefly Hh reporter signal, replicate 2 = 49269; Renilla reference signal, replicate 1 = 1780; Renilla reference signal, replicate 2 = 3124; inactive.
Depletion of Mpcp2 came out at: firefly Hh reporter signal, replicate 1 = 80748; Renilla reference signal, replicate 1 = 4588; Renilla reference signal, replicate 2 = 2192; inactive.
For Ykt6 (YKT6 v-SNARE), the entry reads firefly Hh reporter signal, replicate 1 = 77174; firefly Hh reporter signal, replicate 2 = 85606; Renilla reference signal, replicate 1 = 1751; Renilla reference signal, replicate 2 = 2019; inactive.
Tbce (Tubulin-binding cofactor E) showed firefly Hh reporter signal, replicate 1 = 96477; firefly Hh reporter signal, replicate 2 = 89405; Renilla reference signal, replicate 1 = 3668; Renilla reference signal, replicate 2 = 3434; inactive.
Silencing of Pldn (Pallidin) resulted in: firefly Hh reporter signal, replicate 1 = 79781; firefly Hh reporter signal, replicate 2 = 66244; firefly Hh reporter signal, replicate 3 = 72904; Renilla reference signal, replicate 1 = 5852; Renilla reference signal, replicate 2 = 5606; inactive.
After knock-down of CG17111 the results were firefly Hh reporter signal, replicate 1 = 5.54e5; firefly Hh reporter signal, replicate 2 = 1.02e5; Renilla reference signal, replicate 1 = 25985; Renilla reference signal, replicate 2 = 2786; inactive.
After knock-down of MYPT-75D (Myosin phosphatase targeting subunit 75D), the screen gave firefly Hh reporter signal, replicate 1 = 90919; firefly Hh reporter signal, replicate 2 = 56563; Renilla reference signal, replicate 1 = 3898; Renilla reference signal, replicate 2 = 2032; inactive.
Drsl5 (Drosomycin-like 5) scored firefly Hh reporter signal, replicate 1 = 1.09e5; firefly Hh reporter signal, replicate 2 = 52224; Renilla reference signal, replicate 1 = 4210; Renilla reference signal, replicate 2 = 4835; inactive.
CG11786 gave firefly Hh reporter signal, replicate 1 = 4.86e5; firefly Hh reporter signal, replicate 2 = 1.11e5; Renilla reference signal, replicate 1 = 26529; Renilla reference signal, replicate 2 = 3579; inactive.
After knock-down of CG43183, the record shows firefly Hh reporter signal, replicate 1 = 75926; firefly Hh reporter signal, replicate 2 = 1.83e5; Renilla reference signal, replicate 1 = 1556; Renilla reference signal, replicate 2 = 8675; inactive.

Limited to “firefly Hh reporter signal, replicate 1”, for 2 of the entries above:
Ykt6 (YKT6 v-SNARE): 77174
Tbce (Tubulin-binding cofactor E): 96477
